# Experimental data taken from PubChem BioAssay AID2551 (National Center for Advancing Translational Sciences (NCATS), 2010).
# Chains of the proteins cited; added tags and fusions are not shown. Lines headed by an entry give the natural chain unless they say otherwise; changes in a name come on top.
# UniProt P51450: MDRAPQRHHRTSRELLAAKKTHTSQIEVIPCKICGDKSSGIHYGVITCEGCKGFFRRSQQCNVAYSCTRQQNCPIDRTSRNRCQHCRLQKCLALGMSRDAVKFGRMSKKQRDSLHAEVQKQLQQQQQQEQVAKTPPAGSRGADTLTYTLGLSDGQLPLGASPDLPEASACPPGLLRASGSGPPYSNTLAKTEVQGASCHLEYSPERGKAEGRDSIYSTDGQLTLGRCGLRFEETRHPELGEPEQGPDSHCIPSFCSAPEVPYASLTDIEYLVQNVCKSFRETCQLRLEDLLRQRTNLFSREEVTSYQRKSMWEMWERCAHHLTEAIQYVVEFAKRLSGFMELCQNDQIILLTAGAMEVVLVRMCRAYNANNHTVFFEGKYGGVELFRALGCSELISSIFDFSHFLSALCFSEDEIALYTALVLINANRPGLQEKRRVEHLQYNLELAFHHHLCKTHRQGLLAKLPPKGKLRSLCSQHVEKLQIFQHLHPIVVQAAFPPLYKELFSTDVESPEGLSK
# In all, about 310,000 compounds went through this assay and about 17,000 (5.5%) were called active. Inconclusive means that the source gave no clear call. Such entries were picked first, then a sample of the others. Calls come from the whole dose curve; as a rule, active = well fitted inhibition curve with a large enough effect; inconclusive = small, poorly fitted or top-dose-only effect, or effect the other way; inactive = no such curve, though single readings can be large or run the other way. Where the call is inconclusive, the potency comes from a doubtful curve fit.
# Target: Nuclear receptor ROR-gamma (Mus musculus) (UniProt P51450)
# Assay: qHTS for inhibitors of ROR gamma transcriptional activity; note: nearly all actives have a fitted effect of over 60% in size
# Conditions: Drosophila S2 Gal4-RORgamma UAS-luciferase reporter, 20 h; activity change, negative = inhibition: at 53.6 µM (top of the series)
# Outline: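 Drosophila S2 cells stably expressing Gal4-DBD/mouse RORγ fusion under metallothionein promoter plus UAS-luciferase; compound 1 h, then 700 uM CuSO4 induction for 20 h at ambient temperature; inhibition read as reduced luminescence.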
# % is set by controls: 0 for no effect and ±100 for the full control effect; potency is the fitted concentration of half-maximal effect.
Compound,"activity change, negative = inhibition",Potency
CS(=O)(=O)N1CCCC(C(=O)Nc2ccc(F)cc2F)C1 (stereo unspecified),inactive: -0.776%,–
Cc1ccc(C2=NNC(=Nc3ccc(F)cc3)SC2)cc1,–,"inconclusive: 28.2 µM [inhibitor, single point]"
Cc1cccc(-n2c(SCc3cc(=O)n4ccsc4n3)nc3ccccc3c2=O)c1,–,"inconclusive: 1.41 µM [inhibitor, full curve, poor fit]"
COc1ccc(OC)c(-n2nnnc2SCC(=O)Nc2ccccc2N2CCOCC2)c1,–,"inconclusive: 35.5 µM [activator, single point]"
CCCCCCCC(=O)OCC(=O)[C@@]1(O)CC[C@H]2[C@@H]3CCC4=CC(=O)CC[C@]4(C)[C@H]3[C@@H](O)C[C@@]21C,–,"inconclusive: 11.2 µM [activator, partial curve, poor fit]"
COCc1nnc(NC(=O)c2ccc(S(=O)(=O)N(C)C3CCCCC3)cc2)o1,–,active: 1.58 µM
CC(C)n1cc(C(=O)c2cc(Br)ccc2O)cc(C#N)c1=O,inactive: 32.9%,–
Cc1ccc2c(c1)c1c3n2CCN(C(=O)Cn2c(-c4ccccc4)noc2=O)C3CCC1 (stereo unspecified),–,"inconclusive: 31.6 µM [inhibitor, single point]"
COc1ccc(NC(=S)N2CCN(C/C=C/c3ccccc3)CC2)cc1,–,"inconclusive: 25.1 µM [inhibitor, single point]"
N#CCCN(/N=C/c1cccnc1)C1=NS(=O)(=O)c2ccccc21,inactive: 16%,–
COCCCN(C(=S)Nc1ccc(C)cc1Cl)C(C)c1ccncc1 (stereo unspecified),–,"inconclusive: 17.8 µM [inhibitor, single point]"
CN1CCN(C(=O)/C=C/c2ccc([N+](=O)[O-])cc2)CC1,inactive: -17.7%,–
CCSc1nnc([C@H](Cc2c[nH]c3ccccc23)NC(=O)OC(C)(C)C)o1,–,"inconclusive: 35.5 µM [activator, single point]"
C/C=C1/C(=O)C[C@H]2[C@@H]3CCC4=CC(=O)CC[C@]4(C)[C@H]3CC[C@]12C,inactive: -7.15%,–
O=C(CS(=O)(=O)Cc1ccccc1)NCC1CCCO1 (stereo unspecified),inactive: 0.86%,–
O=C(Nc1ccccn1)c1ccc2c(c1)OCCO2,–,active: 10 µM
COC(=O)C1(Cc2cc(-c3ccc(OC)cc3OC)no2)CCN(C(=O)OC(C)(C)C)CC1,inactive: 28.6%,–
CCc1nnc(NC(=O)c2ccc(S(=O)(=O)N3CCCC(C)C3)cc2)o1 (stereo unspecified),–,active: 0.224 µM
CC(=O)c1ccc(NC(=O)Nc2ccc(NS(=O)(=O)c3ccc(C)cc3)cc2)cc1,–,"inconclusive: 11.2 µM [activator, partial curve]"
O=C(Cc1ccc([N+](=O)[O-])cc1)NCc1cccnc1,inactive: -6.18%,–
Cc1c(Cl)cccc1NC(=S)NC1CC1,–,active: 10 µM
CCc1ccc(OCC2c3cc(OC)c(OC)cc3CCN2C(C)=O)cc1 (stereo unspecified),inactive: -7.5%,–
CCC(=O)Nc1ccc(NC(=O)c2cc3ccccc3o2)cc1,–,"inconclusive: 0.0708 µM [inhibitor, single point]"
O=C(c1ccc(S(=O)(=O)N2CCCC2)cc1)N1CCC(CN2C(=O)c3cccc4cccc(c34)C2=O)CC1,–,"inconclusive: 5.01 µM [activator, full curve]"

Compound,"activity change, negative = inhibition",Potency
Cc1nn(CC(=O)Nc2nnc(CC(=O)N3CCCC3)s2)c(=O)c2ccccc12,–,"inconclusive: 2.82 µM [inhibitor, full curve, poor fit]"
CN1C/C(=C/c2ccncc2)C(=O)/C(=C/c2ccncc2)C1,–,active: 12.6 µM
NS(=O)(=O)c1ccc(CNC(=S)NCc2ccc(Cl)cc2)cc1,–,"inconclusive: 31.6 µM [activator, single point]"
CCOC(=O)c1ccccc1NC(=O)CSc1nnc(C(C)C)n1CC,–,"inconclusive: 0.0562 µM [activator, full curve, poor fit]"
CN(C)S(=O)(=O)c1cccc(NC(=O)CC23CC4CC(CC(C4)C2)C3)c1,–,"inconclusive: 10 µM [activator, partial curve]"
CCOC(=O)c1cc(-c2nnc(-c3ccc(Cl)cc3)o2)c(C)nc1C,inactive: 0.394%,–
CCCCNC(=S)NNC(=O)c1csc(CC)c1,–,"inconclusive: 8.91 µM [inhibitor, partial curve, poor fit]"
COCCN=c1scc(-c2cccs2)n1/N=C(\C)c1ccco1,–,"inconclusive: 35.5 µM [inhibitor, single point]"
Cc1ccc(NC(=S)N/N=C2/CCCCc3ccccc32)cc1,–,active: 3.55 µM
O=C(Nc1ccc(Cl)c(Cl)c1)C1CC(=O)N(c2ccc(Br)cc2)C1 (stereo unspecified),–,"inconclusive: 35.5 µM [inhibitor, single point]"
COc1ccc2c(c1)CCC/C2=N\Nc1nc(C(=O)NN)cs1,–,active: 3.55 µM
CCOC(=O)N1CCC(NC(=O)CC2C(=O)NCCN2Cc2ccccc2F)CC1 (stereo unspecified),inactive: 3.27%,–
CC1=C(C(=O)OCc2ccccc2)C(c2ccc(Cl)cc2Cl)NC(=O)N1CCCC(=O)O (stereo unspecified),–,"inconclusive: 17.8 µM [inhibitor, single point]"
S=c1[nH]nc(-c2cccnc2)n1/N=C/C(Cl)=C\c1ccccc1,–,active: 8.91 µM
Cc1ccc(OCCn2nc3ccccc3n2)c(C)c1,–,"inconclusive: 31.6 µM [activator, single point]"
Cc1ccc(NS(=O)(=O)c2ccc3c(c2)n(C)c(=O)c(=O)n3C)c(C)c1,–,"inconclusive: 31.6 µM [activator, single point]"
CC(C)n1c(=S)[nH]c2cc(Cl)ccc21,–,"inconclusive: 5.01 µM [inhibitor, full curve, poor fit]"
CSc1ccccc1NC(=O)c1noc(C)c1[N+](=O)[O-],inactive: 5.67%,–
CCOC(=O)c1c(-c2cccc([N+](=O)[O-])c2)csc1NC(=O)C1CC1,–,"inconclusive: 35.5 µM [inhibitor, single point]"
CC1(C)CC(=O)C2=C(C1)OC(N)=C(C#N)C2c1cccc(OC(=O)c2ccco2)c1 (stereo unspecified),–,"inconclusive: 1.26 µM [activator, full curve]"
CC(C)(CNC(=O)c1ccc([N+](=O)[O-])c(Cl)c1)CNC(=O)c1ccc([N+](=O)[O-])c(Cl)c1,–,"inconclusive: 5.62 µM [inhibitor, full curve, poor fit]"
CCOC(=O)c1c(-c2ccc(C)cc2)csc1NC(=O)c1cc2ccccc2oc1=O,–,"inconclusive: 35.5 µM [inhibitor, single point]"
C/C=C/C(=O)[C@@H](C)[C@@H](/C=C/C[Si](C)(C)C)c1ccccc1,–,"inconclusive: 35.5 µM [inhibitor, single point]"
COC(C(=O)Nc1ccc(Cl)cc1C)c1ccccc1 (stereo unspecified),inactive: -2.14%,–

# No new results follow: an excerpt of the list.
Compound,"activity change, negative = inhibition",Potency
Cc1ccc(NS(=O)(=O)c2ccc3c(c2)n(C)c(=O)c(=O)n3C)c(C)c1,–,"inconclusive: 31.6 µM [activator, single point]"
CC(C)n1c(=S)[nH]c2cc(Cl)ccc21,–,"inconclusive: 5.01 µM [inhibitor, full curve, poor fit]"

# Following part:

Compound,"activity change, negative = inhibition",Potency
Cc1ccc(S(=O)(=O)N(CC(O)CN2CCCCC2)c2ccccc2)cc1 (stereo unspecified),–,"inconclusive: 0.126 µM [inhibitor, partial curve, poor fit]"
C=CCn1c(O)c(N=NC(=S)Nc2cccc(OC)c2)c2ccccc21,–,active: 0.794 µM
CC1=NN(C(N)=S)C(=O)C1N=Nc1ccc(Cl)cc1 (stereo unspecified),–,active: 0.398 µM
CC1(C)CC(NC(=O)c2cc([N+](=O)[O-])cc([N+](=O)[O-])c2)CC(C)(C)N1,–,"inconclusive: 0.501 µM [inhibitor, full curve, poor fit]"
O=C(c1ccco1)N1CCN(C(c2ccccc2Cl)c2nnnn2Cc2ccco2)CC1 (stereo unspecified),–,"inconclusive: 0.126 µM [inhibitor, single point]"
CCC1CCCCN1C(=O)CCCOc1ccccc1 (stereo unspecified),–,"inconclusive: 1.26 µM [activator, full curve, poor fit]"
Fc1ccc(NC(=S)N2CCc3[nH]c4ccccc4c3C2)cc1,inactive: -5.26%,–
CCC(C(=O)NC(C)(C)C)N(Cc1ccc(F)cc1)C(=O)c1snc(C(N)=O)c1N (stereo unspecified),–,"inconclusive: 35.5 µM [activator, single point]"
COc1cccc(-c2nc(CS(=O)(=O)CC(=O)N3CCc4ccccc4C3)c(C)o2)c1,–,"inconclusive: 35.5 µM [activator, single point]"
O=C(NN=C1CCCCCCCCCCC1)c1ccncc1,–,"inconclusive: 11.2 µM [inhibitor, single point]"
CC(C)c1nc(SCC(=O)NCc2ccccc2)n[nH]1,inactive: -4.55%,–
CC(C)=NNc1nc2c(c(=O)n(C)c(=O)n2C)n1CCc1ccccc1,inactive: -17%,–
COc1cccc(CNC(=O)C2CCN(S(=O)(=O)c3ccc4c(c3)CC(C)N4C(=O)C3CC3)CC2)c1 (stereo unspecified),–,"inconclusive: 35.5 µM [activator, single point]"
O=C(C1CCOCC1)N1CCCC(N2CCN(c3ccc(F)cc3)CC2)C1 (stereo unspecified),inactive: 7.18%,–
O=C(Nc1cccc(S(=O)(=O)N2CCCCC2)c1)c1ccccc1NS(=O)(=O)c1ccc(F)cc1,–,"inconclusive: 5.01 µM [activator, single point]"
N/C(=N\OC(=O)c1cccc2ccccc12)c1ccc(Br)cc1,–,active: 10 µM
Cc1ccc(-c2c3c(nc4sc(C(N)=O)c(N)c24)CCC3)cc1,–,"inconclusive: 35.5 µM [inhibitor, single point]"
Cc1ccc(C)c(N2CCN(C(=O)c3cc4ccccn4n3)CC2)c1,inactive: 17.1%,–
Cc1nnc(NC(=O)c2ccc(S(=O)(=O)C(F)F)cc2)s1,–,"inconclusive: 3.98 µM [inhibitor, partial curve, poor fit]"
Cc1cc(C(=O)CSc2nnc(N)s2)c(C)n1Cc1cccs1,–,active: 8.91 µM
Cc1ccc(CSC2=Nc3ccccc3C3=NC(CCC(=O)NCc4ccco4)C(=O)N23)cc1 (stereo unspecified),–,"inconclusive: 11.2 µM [activator, partial curve]"
O=C(O)C1=C[C@H](C2CC2)C[C@H](OCCCCO)O1,inactive: -16.3%,–
COCCNc1oc(/C=C/c2ccccc2OC)nc1S(=O)(=O)c1ccccc1,–,"inconclusive: 31.6 µM [activator, single point]"

# Arranged by formula weight (smallest number first): part of the list above.
Compound,"activity change, negative = inhibition",Potency
Cc1ccc(C)c(N2CCN(C(=O)c3cc4ccccn4n3)CC2)c1,inactive: 17.1%,–
CC1(C)CC(NC(=O)c2cc([N+](=O)[O-])cc([N+](=O)[O-])c2)CC(C)(C)N1,–,"inconclusive: 0.501 µM [inhibitor, full curve, poor fit]"
Cc1cc(C(=O)CSc2nnc(N)s2)c(C)n1Cc1cccs1,–,active: 8.91 µM
CCC(C(=O)NC(C)(C)C)N(Cc1ccc(F)cc1)C(=O)c1snc(C(N)=O)c1N (stereo unspecified),–,"inconclusive: 35.5 µM [activator, single point]"
